Assay: peptide made by a vendor (Fmoc solid-phase peptide synthesis; Rink Amide MBHA resin; DIC/HOBt)
Conditions: whole synthesis, scale 0.15 mmol

**Q.** Which isolated mass does the source give for FITC-6Ahx-KFFKLKHFILNILKQ-NH2 here?
**A.** Its isolated mass is 80 mg.

**Q.** And the isolated yield?
**A.** The isolated yield was 19%.

**Q.** Which results are given for “FITC-6Ahx-KVFSPKKKMEFFLLF-NH2 (FITC-6Ahx N-terminus; C-terminal amide)”?
**A.** isolated mass: 50 mg; isolated yield: 12%

**Q.** Which results are given for “FITC-6Ahx-LLPQWPRIRHIKLLR-NH2 (FITC-6Ahx N-terminus; C-terminal amide)”?
**A.** isolated mass: 90 mg; isolated yield: 21%

**Q.** Which results are given for “FITC-6Ahx-MRMIRFRKKIPYLRY-NH2 (FITC-6Ahx N-terminus; C-terminal amide)”?
**A.** isolated mass: 55 mg; isolated yield: 11%

**Q.** For FITC-6Ahx-PKWTRPLLPFWKRYL-NH2, which isolated mass is on record?
**A.** Its isolated mass is 50 mg.

**Q.** What about the isolated yield of the same substance?
**A.** Its isolated yield is 11%.

**Q.** For FITC-6Ahx-RLWEFYKLYKRRHRV-NH2, which isolated mass is on record?
**A.** The isolated mass was 90 mg.

**Q.** What about the isolated yield of the same substance?
**A.** Its isolated yield is 18%.

**Q.** For FITC-6Ahx-RWFAFKMMMAKKWAK-NH2, which isolated mass is on record?
**A.** The isolated mass was 20 mg.

**Q.** And the isolated yield?
**A.** Its isolated yield is 4%.

**Q.** With FITC-6Ahx-SKIVRVIFRYAKWLF-NH2 as the substance, how does the isolated mass read?
**A.** Its isolated mass is 25 mg.

**Q.** What about the isolated yield of the same substance?
**A.** Its isolated yield is 6%.

**Q.** Which isolated mass does the source give for “FITC-6Ahx-VKIWFQNRRVRWRKR-NH2 (FITC-6Ahx N-terminus, C-terminal amide)” here?
**A.** Its isolated mass is 60 mg.

**Q.** And the isolated yield?
**A.** The isolated yield was 12%.

Same assay, conditions: whole synthesis, scale 0.15 mmole

**Q.** With FITC-6Ahx-MVLKFFRWLFRLLFR-NH2 as the substance, how does the isolated mass read?
**A.** Its isolated mass is 80 mg.

**Q.** And the isolated yield?
**A.** The isolated yield was 18%.

Same assay, conditions: whole synthesis, scale 0.2 mmol

**Q.** Which results are given for FITC-6Ahx-IKRKRPFVLKKKRGRKRRRI-NH2?
**A.** isolated mass: 78 mg; isolated yield: 12.5%

**Q.** Which isolated mass does the source give for FITC-6Ahx-KLWKKKELLQRAEKKKKIKK-NH2 here?
**A.** Its isolated mass is 52 mg.

**Q.** What about the isolated yield of the same substance?
**A.** Its isolated yield is 8.5%.

**Q.** Which isolated mass does the source give for FITC-6Ahx-LRLLHRRQKRIIGGK-NH2 here?
**A.** The isolated mass was 19 mg.

**Q.** What about the isolated yield of the same substance?
**A.** Its isolated yield is 4.0%.

**Q.** For FITC-6Ahx-MPKFKQRRRKLKAKAERLFK-NH2, which isolated mass is on record?
**A.** Its isolated mass is 75 mg.

**Q.** And the isolated yield?
**A.** The isolated yield was 12.2%.

**Q.** With FITC-6Ahx-RQHGLRHFYNRRRRS-NH2 as the substance, how does the isolated mass read?
**A.** Its isolated mass is 17 mg.

**Q.** And the isolated yield?
**A.** The isolated yield was 3.3%.

**Q.** With FITC-6Ahx-RTTRRWKRWFKFRKRKGEKR-NH2 as the substance, how does the isolated mass read?
**A.** Its isolated mass is 17 mg.

**Q.** And the isolated yield?
**A.** The isolated yield was 2.6%.

**Q.** With FITC-6Ahx-YLKFIPLKRAIWLIK-NH2 as the substance, how does the isolated mass read?
**A.** Its isolated mass is 15 mg.

**Q.** And the isolated yield?
**A.** The isolated yield was 3.1%.

Same assay, conditions: whole synthesis, scale 0.2 mm

**Q.** With FITC-6Ahx-MWQPRRPWPRVPWRW-NH2 as the substance, how does the isolated mass read?
**A.** The isolated mass was 15 mg.

**Q.** What about the isolated yield of the same substance?
**A.** Its isolated yield is 2.8%.

From US20150183827A1 (Hoffmann-La Roche Inc., priority 2012, published 2015)
